Values joined by “and” are separate entries in the source; they are usually repeats but may differ in a detail not shown here. Identical values can stand only once. The campaign covered roughly 320,000 compounds. About 22,000 (6.9%) were called active. Inconclusive means that the source gave no clear call. Such entries were picked first, then a sample of the others. Calls come from the whole dose curve; as a rule, active = well fitted inhibition curve with a large enough effect; inconclusive = small, poorly fitted or top-dose-only effect, or another doubt; inactive = no such curve, though single readings can be large or run the other way. Where the call is inconclusive, the potency comes from a doubtful curve fit. A structure can be active in one record and inactive in another.
Test: Primary qHTS for delayed death inhibitors of the malarial parasite plastid, 96 hour incubation
Conditions: P. falciparum luciferase reporter growth; series mostly up to 28.7 µM
Method in brief: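 Infected RBCs, 2% Hct / 0.05% parasitemia final; luciferase-reporter P. falciparum; cpd 96 h, 37 C, 5% CO2; luciferase detection reagent; luminescence.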
Potency is the fitted concentration of half-maximal effect.

SMILES | Potency
O=C1NCCCC1C(=O)N1CCN(C(c2ccccc2)c2ccccc2)CC1 (stereo not given) | inconclusive: 18.5 µM [inhibitor, single point]
Cc1cc2cc3c(cc2nc1SCc1ccccn1)OCCO3 | inconclusive: 18.5 µM [inhibitor, single point]
O=C(NCCSc1ccc(Cl)cc1)c1ccco1 | inconclusive: 11.7 µM [inhibitor, partial curve, poor fit]
CCCCCn1c(CN2CCN(C(=O)OCC)CC2)nc2c1c(=O)[nH]c(=O)n2C | inconclusive: 0.465 µM [inhibitor, full curve, poor fit]
O=C(NC1CCCCCCC1)c1ccccc1O | inconclusive: 0.117 µM [inhibitor, full curve, poor fit]
CC1Cc2ccccc2N1CC(=O)NC(c1ccccc1)c1ccccc1 (stereo not given) | active: 6.57 µM
Cc1c(CN2CCCC(C(=O)Nc3cccc(-n4cccn4)c3)C2)cnn1C (stereo not given) | active: 13.1 µM
CO/N=C/C(=N\Nc1cc(OC)cc(OC)c1)C(=O)c1ccccc1 | inconclusive: 8.28 µM [inhibitor, single point]
CN1CCc2c1nc1ccccc1c2NC(=O)CN1CCCC1 | inactive
Cc1ccc(C(C)(C)C)cc1S(=O)(=O)Nc1cccc(C(=O)N2CCN(c3ccccn3)CC2)c1 | inconclusive: 11.7 µM [inhibitor, partial curve]
C1CCN=C(NC23CC4CC(CC(C4)C2)C3)CC1 | inconclusive: 10.4 µM [inhibitor, partial curve, poor fit]
Cc1ccc2c(CN3CCN(C(=O)c4ccco4)CC3)cc(=O)oc2c1C | inconclusive: 18.5 µM [inhibitor, single point]
COc1ccccc1NC(=O)CSc1nnc(-c2ccncc2)n1CC1CCCO1 (stereo not given) | inconclusive: 14.7 µM [inhibitor, partial curve, poor fit]
CSCCC(NC(=O)c1ccc(Cl)cc1Cl)C(=O)NCc1ccccn1 (stereo not given) | inconclusive: 18.5 µM [inhibitor, single point]
Cc1cc(C)nc(SCC(=O)Nc2ccc(S(=O)(=O)Nc3ncccn3)cc2)n1 | inactive
O=C(NNc1nc(=O)c2cccnc2s1)c1ccccc1O | inactive
CN(C(=O)CSc1nc(-c2ccccc2)c(-c2ccccc2)o1)C1CCS(=O)(=O)C1 (stereo not given) | inconclusive: 18.5 µM [inhibitor, single point]
O=C(NCCC1=CCCCC1)C1CCCN(S(=O)(=O)c2cnc[nH]2)C1 (stereo not given) | active: 11.7 µM
CC(=O)Nc1ccc(NC(=O)CCN2C(=O)c3ccccc3C2=O)cc1 | inconclusive: 9.28 µM [inhibitor, partial curve, poor fit]
Cc1cc(C)cc(C(=O)NCC(=O)OCC(=O)c2cc(C)n(CC(F)(F)F)c2C)c1 | inactive
COc1ccccc1NS(=O)(=O)c1cc(C(=O)N2CCCC2)ccc1C | inconclusive: 18.5 µM [inhibitor, single point]
FC(F)(F)c1nc2ccccc2c2nc3ccccc3n12 | inactive
NNC(=O)c1ccccc1OCCOc1ccccc1 | inactive
CCC(C)(C)NC(=O)CN(C(=O)C(=O)Nc1ccc2c(c1)OCCO2)N1CCOCC1 | inconclusive: 14.7 µM [inhibitor, partial curve, poor fit]

SMILES | Potency
CCOC(=O)C1(CCOC)CCN(Cc2ccccc2-c2ccco2)CC1 | inconclusive: 18.5 µM [inhibitor, single point]
Oc1cc2c(cc1O)[C@@H](c1ccccc1)CNCC2 | inactive
Cc1cc(NC(=O)CSc2nncn2-c2ccccc2)no1 | inconclusive: 18.5 µM [inhibitor, single point]
CCOP(=O)(OCC)c1nc(-c2ccc(Br)cc2)oc1N1CCCCC1 | inactive
COCCNC(=S)N/N=C(\C)c1cccc([N+](=O)[O-])c1 | inactive
CN(C)CC#CCC(O)(c1ccccc1)C1CCCCC1 (stereo not given) | inconclusive: 18.5 µM [inhibitor, single point]
Brc1c(CSc2nc3ccccc3o2)nc2ncccn12 | inconclusive: 0.37 µM [inhibitor, partial curve, poor fit]
CCCCCCCNC(=O)C1(CC2CC(c3ccccc3)=NO2)CCN(C(=O)OC(C)(C)C)CC1 (stereo not given) | active: 6.57 µM
OC(Cc1ccccc1)(c1ccccc1)C1CN2CCC1CC2 (stereo not given) | inconclusive: 11.7 µM [inhibitor, partial curve, poor fit]
COc1ccc(C(=O)c2cccc(C(=O)c3ccc(OC)c(C)c3)c2)cc1C | inactive
CNC(=S)c1cc(C(C)(C)C)c(O)c(C(C)(C)C)c1 | inconclusive: 7.38 µM [inhibitor, partial curve, poor fit]
Cc1ccc2cc(C)c(SCC(=O)Nc3cc(C)on3)nc2c1 | inconclusive: 0.329 µM [inhibitor, full curve, poor fit]
Cc1ccc(S(=O)(=O)NNC(=O)c2ccoc2C)cc1 | inactive
Cc1ccc(S(=O)(=O)N2CCC(C(=O)NNC(=O)c3cccnc3)CC2)cc1 | inconclusive: 2.08 µM [inhibitor, full curve, poor fit]
CCN(CC(=O)Nc1ccc(OC)cc1)C(=O)c1ccc2[nH]c3c(c2c1)CC(C)CC3 (stereo not given) | inconclusive: 5.86 µM [inhibitor, partial curve, poor fit]
C/C(=N\Nc1ccccc1)c1cccc(N)c1 | inconclusive: 18.5 µM [inhibitor, single point]
CCOC(=O)C1(Cc2cccc(Cl)c2)CCCN(C(=O)c2cc(C)n(C)n2)C1 (stereo not given) | inconclusive: 20.8 µM [inhibitor, single point]
CCCc1nc(SCC(=O)Nc2cc(Cl)ccc2OC)c2c(=O)n(C)c(=O)n(C)c2n1 | inconclusive: 13.1 µM [inhibitor, partial curve, poor fit]
Cc1cc(N2CCN(C3CCCC3)CC2)n2c(nc3ccccc32)c1C#N | active: 0.233 µM
O=C(c1cc(C2CC2)nn1-c1ccccc1)N1CCN(c2ccc(O)cc2)CC1 | inconclusive: 18.5 µM [inhibitor, partial curve, poor fit]
CC(C)OC(=O)C1CC(C)(O)C(=O)C(C(=O)OC(C)C)C1c1ccc([N+](=O)[O-])cc1 (stereo not given) | inconclusive: 10.4 µM [inhibitor, single point]
COc1ccc(N2CCN(Cc3cc4c(cc3Br)OCCO4)CC2)cc1 | inconclusive: 18.5 µM [inhibitor, single point]
COc1ccc(/C=N/Nc2nc(-c3ccc(C)cc3)c(NC(C)=O)s2)cc1OC | active: 1.17 µM
CCOc1nc(C)ccc1-c1noc(-c2ccncc2)n1 | inactive

SMILES | Potency
CCOCCn1c(=NC(=O)/C=C/c2ccccc2Cl)sc2cc(NC(C)=O)ccc21 | inconclusive: 1.31 µM [inhibitor, partial curve, poor fit]
CCCc1nn(C)c(C(=O)Nc2ccc(C(C)(C)C)cc2)c1Cl | inconclusive: 13.1 µM [inhibitor, single point]
Cn1c(CSc2ncccn2)nnc1SCC(=O)N1CCCCCC1 | inconclusive: 11.7 µM [inhibitor, single point]
Nc1ccc(-c2nc3ccc(N)cc3s2)cc1 | inactive
COc1ccc(C(=O)Nc2ccc3c(c2)OCCO3)cc1S(=O)(=O)N1CCOCC1 | active: 10.4 µM
O=C(Cn1c(NCCCO)nc2ccccc21)c1ccc(Br)cc1 | inactive
C=CCn1c(SCC(=O)Nc2nnc(C)s2)nnc1C1CC1 | inactive
N#CC1=C(N)C(C#N)(C#N)C(c2cccnc2)C2CC(c3ccccc3)CC=C12 (stereo not given) | active: 11.7 µM
COCCN(C(=S)Nc1cc(C)cc(C)c1)C(C)c1ccco1 (stereo not given) | inconclusive: 11.7 µM [inhibitor, single point]
COc1ccc(NC(=O)COc2ccccc2Cc2ccccc2)cc1S(N)(=O)=O | inconclusive: 13.1 µM [inhibitor, single point]
CCn1c(C)nc2cc(C(=O)OC(C(F)(F)C(F)F)C(F)(F)C(F)F)ccc21 | inactive
Cc1cc(C)c(S(=O)(=O)N2CCOC2CNC(=O)C(=O)NCCc2c[nH]c3ccccc23)c(C)c1 (stereo not given) | inconclusive: 16.5 µM [inhibitor, single point]
COc1cc(C(=O)Nc2nc3ccc4nc(C)sc4c3s2)cc(OC)c1OC | inactive
Cc1c(Cl)cccc1Nc1ccccc1C(=O)O | inactive and active: 13.5 µM
O=C(C1=C[C@@H](C2CC2)C[C@@H](OCc2ccc(CO)cc2)O1)N1CCN(Cc2ccc3c(c2)OCO3)CC1 | inactive
CN1CCc2nc(SCc3cccc(Br)c3)c(C#N)cc2C1 | inconclusive: 10.4 µM [inhibitor, partial curve, poor fit]
Cc1ccc(NC(=O)c2cc(-c3ccc(F)cc3)on2)cc1C | inconclusive: 0.0828 µM [inhibitor, full curve, poor fit]
C/C(=N/NC(=O)c1cc(-c2cccc([N+](=O)[O-])c2)n[nH]1)c1ccc(Cl)cc1 | inactive
O=C(Cn1c(=O)c2c(ncn2Cc2ccccc2)n(Cc2ccccc2)c1=O)N1CCCC1 | inconclusive: 14.7 µM [inhibitor, partial curve, poor fit]
Oc1ccc2ccccc2c1/C=N/Nc1ccccc1 | inconclusive: 4.65 µM [inhibitor, partial curve]
Cc1cc(C)cc(NC(=O)NCc2c(-c3ccccc3)noc2C)c1 | inconclusive: 14.7 µM [inhibitor, single point]
O=C(NCCC1=CCCCC1)c1ccc(-n2cncn2)c([N+](=O)[O-])c1 | inconclusive: 18.5 µM [inhibitor, partial curve, poor fit]

Source: PubChem BioAssay AID504834 (National Center for Advancing Translational Sciences (NCATS), 2011)
